No constants are given. Whether binding was seen depends on the method and setting. Some results given as binding are weak or reduced against the parent protein; the word gives no strength.
Target: recombinant canine Nerve Growth Factor (Canis lupus familiaris NGF) (canine (Canis lupus familiaris))
Experiment: SPR, binding to canine NGF

binding: binds
B1: QC23LC (antibody, V domains shown)
VH: EVQLVESGGDLARPGGSLKLSCVVSGFSLIGYDINWVRQAPGKGLQWVTMIWGDGTTDYNSALKSRFTVSRDNAMNTVYLQMNSLRVEDTAVYYCARGGYYYGTSYYFDYWGQGTLVTVSS
VL: DIVMTQTPLSLSVSPGEPASISCRASQDISNHLNWFRQKPDGTVKLLIYYISRFHSGVPSRFSGSGSGTDFTLRISRVEADDAGVYYCQQSKTLPYTFGQGTKLEIK

From patent publication US20150147318A1
